# Measured values from PubChem BioAssay (Tox21).
# Amino acid sequences for entries named in this document (tags omitted).
# UniProt P10635, whole entry, looked up: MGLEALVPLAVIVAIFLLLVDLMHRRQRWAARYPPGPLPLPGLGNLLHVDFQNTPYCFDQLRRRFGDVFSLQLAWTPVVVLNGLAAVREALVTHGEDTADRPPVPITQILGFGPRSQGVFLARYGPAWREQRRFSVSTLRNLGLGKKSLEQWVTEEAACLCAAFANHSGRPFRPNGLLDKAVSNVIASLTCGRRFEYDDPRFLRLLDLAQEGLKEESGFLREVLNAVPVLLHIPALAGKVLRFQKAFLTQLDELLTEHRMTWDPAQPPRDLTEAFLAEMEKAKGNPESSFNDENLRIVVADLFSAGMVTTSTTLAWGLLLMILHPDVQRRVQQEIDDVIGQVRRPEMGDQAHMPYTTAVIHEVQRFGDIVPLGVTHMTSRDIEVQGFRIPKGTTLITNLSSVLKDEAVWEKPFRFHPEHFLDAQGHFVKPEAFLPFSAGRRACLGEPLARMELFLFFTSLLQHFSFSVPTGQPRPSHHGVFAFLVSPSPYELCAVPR
# UniProt P11712, whole entry, looked up: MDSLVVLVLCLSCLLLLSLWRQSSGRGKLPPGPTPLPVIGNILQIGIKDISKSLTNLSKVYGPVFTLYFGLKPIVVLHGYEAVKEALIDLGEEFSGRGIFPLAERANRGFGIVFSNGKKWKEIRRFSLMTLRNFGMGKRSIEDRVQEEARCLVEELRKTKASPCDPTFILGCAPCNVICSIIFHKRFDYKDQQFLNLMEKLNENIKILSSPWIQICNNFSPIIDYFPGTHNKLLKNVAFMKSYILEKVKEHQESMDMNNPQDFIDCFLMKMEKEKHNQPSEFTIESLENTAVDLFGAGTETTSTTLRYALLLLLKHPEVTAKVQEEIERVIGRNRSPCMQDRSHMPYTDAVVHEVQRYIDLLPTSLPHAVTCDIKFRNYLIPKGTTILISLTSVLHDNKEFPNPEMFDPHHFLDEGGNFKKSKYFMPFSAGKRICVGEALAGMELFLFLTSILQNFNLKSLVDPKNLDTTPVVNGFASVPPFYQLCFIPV
# UniProt P33261, whole entry, looked up: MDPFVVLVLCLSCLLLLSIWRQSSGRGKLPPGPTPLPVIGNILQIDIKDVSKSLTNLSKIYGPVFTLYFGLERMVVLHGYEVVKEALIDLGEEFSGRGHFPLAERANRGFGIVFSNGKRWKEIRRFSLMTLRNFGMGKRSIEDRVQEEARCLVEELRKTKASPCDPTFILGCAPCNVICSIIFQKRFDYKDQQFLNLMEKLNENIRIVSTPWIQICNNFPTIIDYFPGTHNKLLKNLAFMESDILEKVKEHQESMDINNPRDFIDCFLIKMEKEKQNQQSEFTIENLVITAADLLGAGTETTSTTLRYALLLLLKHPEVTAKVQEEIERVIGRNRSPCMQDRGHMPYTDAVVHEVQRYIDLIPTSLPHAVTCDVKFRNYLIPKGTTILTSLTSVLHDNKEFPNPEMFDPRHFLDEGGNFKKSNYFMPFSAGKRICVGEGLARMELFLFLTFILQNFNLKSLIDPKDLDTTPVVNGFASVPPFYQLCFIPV
# Several values for one entry are separate records, joined by “and”; a condition that tells them apart may be missing. Equal entries are not always repeated. Inconclusive results, whose numbers are uncertain, are shown with a selection of clear calls. Potencies beside an inconclusive call are fits to weak or partial responses and may not hold up. More than one record can exist for a structure, and the calls need not agree. Activity calls are given as the source filed them. Calls follow the shape of the dose curve; as a rule, active = well fitted curve in the direction sought with a large enough effect in the repeat runs; inconclusive = weak or mixed curves; inactive = no such curve, though single readings can be large; an effect the other way counts as inactive or inconclusive.
# Tests used:
# [1] = biological target: Nuclear receptor subfamily 1 group I member 2 (Homo sapiens) (UniProt O75469); assay: Human pregnane X receptor (PXR) small molecule agonists, qHTS assay (AID 1346982); also: nearly all actives have a fitted effect of over 35% in size; as to activation: % is scaled to controls: 0 for no effect and ±100 for the full control effect
# Method in brief: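 HepG2 PXR-Luc reporter line, 5% charcoal-stripped FBS; 5 hr pre-incubation, compound (DMSO) 24 hr at 37 C/5% CO2; ONE-Glo 30 min RT; luminescence read-out.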
# [2] = biological target: Cytochrome P450 2D6 (Homo sapiens) (UniProt P10635); assay: Cytochrome P450 Family 2 Subfamily D Member 6 (CYP2D6) small molecule antagonists: luciferase reporter qHTS assay (AID 1671196); also: nearly all actives have a fitted effect of over 50% in size; as to activity change, negative = inhibition: series mostly up to about 120 µM; % is scaled to controls: 0 for no effect and ±100 for the full control effect
# Method in brief: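 Luminogenic proluciferin substrate, CYP2D6 enzyme; 10 min RT preincubation with compound, NADPH regeneration system added, 1 h RT. Stop/detection reagent, 20 min RT, luminescence read (RLU). Signal proportional to CYP activity.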
# [3] = biological target: Cytochrome P450 2C9 (Homo sapiens) (UniProt P11712); assay: Cytochrome P450 Family 2 Subfamily C Member 9 (CYP2C9) small molecule antagonists: luciferase reporter qHTS assay (AID 1671198); also: nearly all actives have a fitted effect of over 50% in size; as to activity change, negative = inhibition: series mostly up to about 120 µM; % is scaled to controls: 0 for no effect and ±100 for the full control effect
# Method in brief: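 Enzyme-substrate mix preincubated with compound 10 min at room temperature; reaction started with NADPH regeneration solution, 1 h 37C. Luminescent luciferin product read after 20 min detection reagent.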
# [4] = biological target: Nuclear receptor subfamily 1 group I member 2 (Homo sapiens) (UniProt O75469); assay: Human pregnane X receptor (PXR) activation by small molecules, qHTS assay (AID 1346985); also: nearly all actives have a fitted effect of over 40% in size
# Method in brief: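 DPX-2 cells (HepG2 co-transfected with a PXR response element and a CYP3A4-promoter luciferase construct) were seeded at 2,000 per well, rested 5 hr at 37C, then exposed to DMSO-dissolved compounds for 24 hr. Activation was read as luciferase luminescence.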
# [5] = Caspase-3/7 induction in HepG2 cells by small molecules, qHTS cell viability counter screen (AID 1346981); also: nearly all actives have a fitted effect of over 30% in size
# Method in brief: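 Fluorescence read-out of live-cell protease activity (CellTiter-Fluor) after 1 hr with reagent. This was measured in the same wells as the caspase-3/7 luminescence, on HepG2 cells exposed to DMSO-dissolved compounds for 16 hr at 37 C.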
# [6] = biological target: Cytochrome P450 2C19 (Homo sapiens) (UniProt P33261); assay: Cytochrome P450 Family 2 Subfamily C Member 19 (CYP2C19) small molecule antagonists: luciferase reporter qHTS assay (AID 1671197); also: nearly all actives have a fitted effect of over 65% in size; as to activity change, negative = inhibition: series mostly up to about 120 µM; % is scaled to controls: 0 for no effect and ±100 for the full control effect
# Method in brief: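 Light output is proportional to CYP2C19 activity: proluciferin substrate is converted to luciferin, then detected by a luciferin detection reagent that also stops the 1 h, 37C NADPH-driven reaction. Ketoconazole serves as positive control.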
# Potency is read from the fitted curve at half-maximal effect.
smiles,measurement,setting,value
CCCCCCCC/C=C\CCCCCCCC(=O)OCCO,Potency,[1],"inconclusive: 72.2 µM [activator, partial curve]"
same,Potency,[2],"inconclusive: 52.9 µM [inhibitor, partial curve]"
same,Potency,[3],active: 18.8 µM
C=Cc1ccc(OC(C)=O)cc1,Potency,[1],"inconclusive: 61.1 µM [activator, partial curve]"
O=c1[nH]c(=O)n([C@H]2C[C@H](O)[C@@H](CO)O2)cc1F,Potency,[1],"inconclusive: 10.6 µM [activator, partial curve]"
same,Potency,[4],"inconclusive: 15.8 µM [activator, partial curve, poor fit]"
same,Potency,[2],inactive
COc1ccccc1N=Nc1c(S(=O)(=O)O)cc2cc(S(=O)(=O)O)cc(NC(C)=O)c2c1O,Potency,[5],active: 25.7 µM
CCCc1ccccc1O,Potency,[5],"inconclusive: 30.6 µM [rising, single point]"
same,Potency,[3],"inconclusive: 71 µM [inhibitor, partial curve, poor fit]"
Cc1cc2c(cc1CC(=O)c1sccc1S(=O)(=O)Nc1onc(C)c1Cl)OCO2,Potency,[1],"inconclusive: 29.8 µM [activator, partial curve, poor fit]"
same,Potency,[2],active: 2.45 µM
CCC(CO)(CO)CO,Potency,[5],inactive
CC(C)(C)C(=O)OCOC(=O)[C@@H]1N2C(=O)[C@@H](NC(=O)[C@H](N)c3ccccc3)[C@H]2SC1(C)C,Potency,[1],inconclusive: 29.8 µM [activator]
[Cu+],Potency,[5],inactive
same,Potency,[2],inconclusive: 39.9 µM [inhibitor]
same,Potency,[3],active: 11.2 µM
CCOCCC(=O)OCC,Potency,[5],inactive
CC/C=C\CCCCCO,Potency,[1],inactive
CNC1CCCN(c2c(F)cc3c(=O)c(C(=O)O)cn(C4CC4)c3c2OC)C1 (stereo not drawn),Potency,[5],inactive
C#CC(C)(O)CC(C)C (stereo not drawn),Potency,[1],inactive
CC1=NC(C)OC1C (stereo not drawn),Potency,[1],"inconclusive: 68.6 µM [activator, single point]"
same,Potency,[6],"inconclusive: 89.4 µM [inhibitor, partial curve, poor fit]"
same,Potency,[3],inactive
COc1ccc(C2C(=O)c3ccccc3C2=O)cc1,Potency,[4],"inconclusive: 22.4 µM [activator, partial curve, poor fit]"
CC(C)Cn1cnc2c(N)nc3ccccc3c21,Potency,[4],"inconclusive: 31.6 µM [activator, single point]"
COC(=O)NN,Potency,[6],"inconclusive: 1.3 µM [inhibitor, full curve, poor fit]"
CCCOC(=O)C(C)O (stereo not drawn),Potency,[2],inactive
same,Potency,[6],"inconclusive: 91.3 µM [inhibitor, single point]"
CC(C)(C)C1CCC(O)CC1 (stereo not drawn),Potency,[2],inactive
same,Potency,[3],"inconclusive: 64.2 µM [inhibitor, partial curve]"
O=C(O)c1ccc(O)cc1,Potency,[2],"inconclusive: 20 µM [inhibitor, full curve, poor fit] and inactive"
same,Potency,[3],inactive
CNS(=O)(=O)Cc1ccc2[nH]cc(CCN(C)C)c2c1,Potency,[6],"inconclusive: 43.6 µM [inhibitor, single point]"
CCCO,Potency,[6],"inconclusive: 89.4 µM [inhibitor, single point]"
NCCNCCNCCNCCN,Potency,[6],active: 63 µM
same,"activity change, negative = inhibition",[6],inactive: 36.2% [at 10.5 µM]
same,Potency,[3],"inconclusive: 44.6 µM [inhibitor, partial curve, poor fit]"
CCCCCCOC(=O)C(C)C,Potency,[2],"inconclusive: 63.3 µM [inhibitor, partial curve]"
same,Potency,[6],"inconclusive: 89.4 µM [inhibitor, single point]"
CCC(=O)O,Potency,[6],"inconclusive: 100 µM [inhibitor, partial curve, poor fit]"
CCCCC(CC)COC(=O)/C=C\C(=O)OCC(CC)CCCC (stereo not drawn),Potency,[2],"inconclusive: 35.6 µM [inhibitor, partial curve, poor fit]"
same,Potency,[3],"inconclusive: 22.4 µM [inhibitor, full curve]"
COc1nccnc1NS(=O)(=O)c1ccc(N)cc1,Potency,[6],inactive
O[C@@H]([C@H](O)[C@H](O)CBr)[C@H](O)CBr,Potency,[6],"inconclusive: 89.2 µM [inhibitor, single point]"
CN(C)CCOC(=O)C(c1ccccc1)C1(O)CCCC1 (stereo not drawn),Potency,[2],"inconclusive: 30.9 µM [inhibitor, partial curve]"
same,Potency,[6],"inconclusive: 24.5 µM [inhibitor, partial curve]"
CC(C)CC(C)CC(C)CC(C)COC(=O)c1ccccc1C(=O)OCC(C)CC(C)CC(C)CC(C)C (stereo not drawn),Potency,[2],"inconclusive: 58.7 µM [inhibitor, partial curve]"
same,Potency,[6],active: 65.9 µM
O=C(O)CCC(=O)OC[C@@H](NC(=O)C(Cl)Cl)[C@H](O)c1ccc([N+](=O)[O-])cc1,Potency,[2],inactive
same,Potency,[6],"inconclusive: 43.6 µM [inhibitor, single point]"
NCC1(Cc2noc(=O)[nH]2)CCCCC1,Potency,[6],"inconclusive: 89.4 µM [inhibitor, single point]"
same,Potency,[3],"inconclusive: 79.6 µM [inhibitor, partial curve]"
C=CCn1cc[n+](C)c1,Potency,[2],"inconclusive: 36.1 µM [inhibitor, partial curve, poor fit]"
same,Potency,[6],inactive
CC(C)c1ccc(C(=O)N=C(N)N)cc1S(C)(=O)=O,Potency,[2],"inconclusive: 49.9 µM [inhibitor, partial curve]"
same,Potency,[3],inactive
NCCOCCO,Potency,[6],"inactive and inconclusive: 71 µM [inhibitor, single point]"
CC(C(=O)O)c1ccc(C(=O)c2cccs2)cc1 (stereo not drawn),Potency,[6],"inconclusive: 34.7 µM [inhibitor, partial curve, poor fit]"
Cc1onc(-c2c(Cl)cccc2Cl)c1C(=O)N[C@@H]1C(=O)N2[C@@H]1SC(C)(C)[C@@H]2C(=O)O,Potency,[2],"inconclusive: 38.9 µM [inhibitor, single point]"
same,Potency,[3],active: 13.8 µM
O=C(O)CCCCCCCCCC(=O)O,Potency,[2],"inconclusive: 63.3 µM [inhibitor, partial curve]"
same,Potency,[6],inactive
C=COCCOCCOC=C,Potency,[2],"inconclusive: 71 µM [inhibitor, partial curve]"
same,Potency,[3],inactive
CCCCN1C[C@H](O)[C@@H](O)[C@H](O)[C@H]1CO,Potency,[6],"inconclusive: 0.871 µM [inhibitor, single point]"
same,Potency,[3],inactive
CC1(C)CC(O)CC(C)(C)N1,Potency,[6],inactive
CCCCCCCCCCCCSC,Potency,[6],inactive
Clc1cc(Cl)c(Cl)cc1Cl,Potency,[2],inactive
same,Potency,[6],"inconclusive: 0.71 µM [inhibitor, single point]"
same,Potency,[3],"inconclusive: 89.4 µM [inhibitor, partial curve, poor fit]"
CCOc1ccc(NC(C)=O)cc1,Potency,[2],"inactive and inconclusive: 34.7 µM [inhibitor, partial curve]"
same,Potency,[3],"inconclusive: 92.2 µM [inhibitor, partial curve, poor fit] and inconclusive: 56.4 µM [inhibitor, partial curve, poor fit]"
CC1c2ccccc2CN1NC(=O)c1ccc(Cl)c(S(N)(=O)=O)c1 (stereo not drawn),Potency,[2],inactive
same,Potency,[6],inconclusive: 0.0009 µM [inhibitor]
same,Potency,[3],inconclusive: 34.7 µM [inhibitor]
CC1=CC(=O)CCC1,Potency,[2],inactive
same,Potency,[3],inactive
C=CC(C)(O)CCC=C(C)C (stereo not drawn),Potency,[6],"inconclusive: 89.4 µM [inhibitor, single point]"
same,Potency,[3],"inconclusive: 78.8 µM [inhibitor, partial curve, poor fit] and inconclusive: 56.4 µM [inhibitor, partial curve, poor fit]"
CCCCCCCCCC[N+](C)(C)[O-],Potency,[6],"inconclusive: 79.6 µM [inhibitor, single point]"
O=C(O)c1cc(Br)c(O)c(Br)c1,Potency,[2],inconclusive: 71 µM [inhibitor]
same,Potency,[6],active: 7.96 µM
CC(N)C12CC3CC(CC(C3)C1)C2 (stereo not drawn),Potency,[2],"inconclusive: 15.5 µM [inhibitor, partial curve]"
same,Potency,[3],inactive
O=C(O)C1CCC1,Potency,[6],inactive
Nc1c(Cl)cc(Cl)cc1[N+](=O)[O-],Potency,[6],"inconclusive: 89.4 µM [inhibitor, single point]"
CCCCCC/C=C/CCCCCCCC(=O)O,Potency,[2],"inconclusive: 3.56 µM [inhibitor, full curve, poor fit]"
same,Potency,[3],"inconclusive: 71.1 µM [inhibitor, partial curve, poor fit]"
CCOC(=O)CCCCCCCCC(=O)OCC,Potency,[6],"inconclusive: 89.4 µM [inhibitor, single point]"
OC[C@@H](O)[C@@H](O)CO,Potency,[2],inactive
same,Potency,[3],inactive

# A stretch of the results above, for reference:
smiles,measurement,setting,value
[Cu+],Potency,[5],inactive
same,Potency,[2],inconclusive: 39.9 µM [inhibitor]
same,Potency,[3],active: 11.2 µM

# 2 entries from above, with bars between the fields:
smiles | measurement | setting | value
CCCCN1C[C@H](O)[C@@H](O)[C@H](O)[C@H]1CO | Potency | [3] | inactive
CC1c2ccccc2CN1NC(=O)c1ccc(Cl)c(S(N)(=O)=O)c1 (stereo not drawn) | Potency | [3] | inconclusive: 34.7 µM [inhibitor]
